Results: paper PMC7137729
These are yes or no findings as the source states them, for the method shown. Binding seen in cells or lysates may run through a third protein. Some results given as binding are weak or reduced against the parent protein; the word gives no strength.

Amino acid sequences for entries named in this document (tags omitted). Residues count along the entry.
UniProt Q86YW7, residues 25-130: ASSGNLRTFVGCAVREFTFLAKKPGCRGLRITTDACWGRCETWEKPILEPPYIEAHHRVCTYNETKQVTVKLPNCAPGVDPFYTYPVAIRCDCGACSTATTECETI
UniProt Q96T91, residues 24-129: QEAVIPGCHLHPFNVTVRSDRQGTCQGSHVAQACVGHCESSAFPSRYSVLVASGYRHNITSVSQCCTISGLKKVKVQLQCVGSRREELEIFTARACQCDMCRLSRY

How the values were obtained:
[1] = molecular target: H. sapiens GPB5-His (H. sapiens) (UniProt Q86YW7); assay: cross-linking; 0.68 mM DSS for 30 min at RT on concentrated conditioned media with human GPA2-FLAG and GPB5-His, kept separate or combined after separate production; reducing SDS-PAGE, anti-His and anti-FLAG blots
[2] = molecular target: H. sapiens GPA2-FLAG (H. sapiens) (UniProt Q96T91); assay: as above

Row | binding [1] | binding [2] | Substance
1 | binds | binds | H. sapiens GPA2-FLAG (from UniProt Q96T91 24-129)
2 | binds |  | H. sapiens GPB5-His (from UniProt Q86YW7 25-130)
